This is an account of results in the supplement of paper PMC10849652.

Chains of the proteins cited; added tags and fusions are not shown. Lines headed by an entry give the natural chain unless they say otherwise; changes in a name come on top.
UniProt Q5JTZ9, whole entry, looked up: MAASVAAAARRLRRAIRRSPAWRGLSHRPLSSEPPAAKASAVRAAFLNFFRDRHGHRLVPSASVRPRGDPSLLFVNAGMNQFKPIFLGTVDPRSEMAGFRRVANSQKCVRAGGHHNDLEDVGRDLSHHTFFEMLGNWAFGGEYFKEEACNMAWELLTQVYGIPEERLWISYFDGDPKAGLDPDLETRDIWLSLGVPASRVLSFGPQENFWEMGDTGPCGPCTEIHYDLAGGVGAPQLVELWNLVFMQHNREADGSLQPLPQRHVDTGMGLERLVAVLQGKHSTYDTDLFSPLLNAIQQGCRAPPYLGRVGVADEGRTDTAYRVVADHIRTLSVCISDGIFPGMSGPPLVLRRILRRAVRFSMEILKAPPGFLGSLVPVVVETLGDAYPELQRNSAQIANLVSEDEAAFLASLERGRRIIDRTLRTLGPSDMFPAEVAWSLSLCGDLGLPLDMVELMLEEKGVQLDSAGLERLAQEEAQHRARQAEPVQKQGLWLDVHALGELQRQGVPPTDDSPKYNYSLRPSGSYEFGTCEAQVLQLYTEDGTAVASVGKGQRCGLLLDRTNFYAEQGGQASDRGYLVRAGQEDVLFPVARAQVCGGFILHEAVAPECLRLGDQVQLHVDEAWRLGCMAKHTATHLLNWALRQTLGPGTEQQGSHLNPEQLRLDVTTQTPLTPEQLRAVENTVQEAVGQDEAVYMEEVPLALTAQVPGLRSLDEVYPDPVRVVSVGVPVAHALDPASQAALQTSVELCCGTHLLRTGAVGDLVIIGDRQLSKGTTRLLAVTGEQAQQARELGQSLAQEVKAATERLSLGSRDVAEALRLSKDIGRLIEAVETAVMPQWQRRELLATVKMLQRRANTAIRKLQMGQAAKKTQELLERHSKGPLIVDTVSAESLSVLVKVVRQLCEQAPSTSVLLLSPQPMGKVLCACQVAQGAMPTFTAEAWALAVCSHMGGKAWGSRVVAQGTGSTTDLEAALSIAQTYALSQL
UniProt Q9NP58: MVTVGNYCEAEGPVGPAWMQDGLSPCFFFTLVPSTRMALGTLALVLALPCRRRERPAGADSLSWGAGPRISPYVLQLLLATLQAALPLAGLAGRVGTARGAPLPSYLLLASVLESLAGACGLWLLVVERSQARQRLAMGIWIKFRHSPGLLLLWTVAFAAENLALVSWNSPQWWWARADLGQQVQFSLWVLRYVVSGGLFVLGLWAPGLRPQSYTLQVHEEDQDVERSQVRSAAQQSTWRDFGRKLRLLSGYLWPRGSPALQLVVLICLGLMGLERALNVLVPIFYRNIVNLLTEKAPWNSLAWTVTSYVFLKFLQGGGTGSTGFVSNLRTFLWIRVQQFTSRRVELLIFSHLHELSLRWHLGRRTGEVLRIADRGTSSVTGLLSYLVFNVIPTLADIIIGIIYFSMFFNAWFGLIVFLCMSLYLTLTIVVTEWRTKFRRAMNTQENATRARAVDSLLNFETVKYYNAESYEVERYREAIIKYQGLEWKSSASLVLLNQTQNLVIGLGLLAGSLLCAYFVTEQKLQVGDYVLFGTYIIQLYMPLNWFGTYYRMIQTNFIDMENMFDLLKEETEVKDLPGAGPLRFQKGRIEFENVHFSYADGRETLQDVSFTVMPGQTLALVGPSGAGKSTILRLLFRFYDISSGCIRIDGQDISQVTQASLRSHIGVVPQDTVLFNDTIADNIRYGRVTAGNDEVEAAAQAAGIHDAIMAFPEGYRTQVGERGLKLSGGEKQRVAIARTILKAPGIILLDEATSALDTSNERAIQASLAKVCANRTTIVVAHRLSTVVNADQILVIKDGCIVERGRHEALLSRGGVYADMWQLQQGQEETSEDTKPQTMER
UniProt Q9BV23: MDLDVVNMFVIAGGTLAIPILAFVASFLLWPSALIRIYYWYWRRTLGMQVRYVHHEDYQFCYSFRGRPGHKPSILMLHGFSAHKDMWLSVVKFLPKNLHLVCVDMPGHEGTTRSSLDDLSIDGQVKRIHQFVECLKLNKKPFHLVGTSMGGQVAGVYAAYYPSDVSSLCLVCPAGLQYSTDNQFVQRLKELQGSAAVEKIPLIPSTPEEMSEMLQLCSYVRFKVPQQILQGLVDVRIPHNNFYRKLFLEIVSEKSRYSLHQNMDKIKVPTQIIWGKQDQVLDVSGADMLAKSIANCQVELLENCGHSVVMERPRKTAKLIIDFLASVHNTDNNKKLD
UniProt Q2M2I8: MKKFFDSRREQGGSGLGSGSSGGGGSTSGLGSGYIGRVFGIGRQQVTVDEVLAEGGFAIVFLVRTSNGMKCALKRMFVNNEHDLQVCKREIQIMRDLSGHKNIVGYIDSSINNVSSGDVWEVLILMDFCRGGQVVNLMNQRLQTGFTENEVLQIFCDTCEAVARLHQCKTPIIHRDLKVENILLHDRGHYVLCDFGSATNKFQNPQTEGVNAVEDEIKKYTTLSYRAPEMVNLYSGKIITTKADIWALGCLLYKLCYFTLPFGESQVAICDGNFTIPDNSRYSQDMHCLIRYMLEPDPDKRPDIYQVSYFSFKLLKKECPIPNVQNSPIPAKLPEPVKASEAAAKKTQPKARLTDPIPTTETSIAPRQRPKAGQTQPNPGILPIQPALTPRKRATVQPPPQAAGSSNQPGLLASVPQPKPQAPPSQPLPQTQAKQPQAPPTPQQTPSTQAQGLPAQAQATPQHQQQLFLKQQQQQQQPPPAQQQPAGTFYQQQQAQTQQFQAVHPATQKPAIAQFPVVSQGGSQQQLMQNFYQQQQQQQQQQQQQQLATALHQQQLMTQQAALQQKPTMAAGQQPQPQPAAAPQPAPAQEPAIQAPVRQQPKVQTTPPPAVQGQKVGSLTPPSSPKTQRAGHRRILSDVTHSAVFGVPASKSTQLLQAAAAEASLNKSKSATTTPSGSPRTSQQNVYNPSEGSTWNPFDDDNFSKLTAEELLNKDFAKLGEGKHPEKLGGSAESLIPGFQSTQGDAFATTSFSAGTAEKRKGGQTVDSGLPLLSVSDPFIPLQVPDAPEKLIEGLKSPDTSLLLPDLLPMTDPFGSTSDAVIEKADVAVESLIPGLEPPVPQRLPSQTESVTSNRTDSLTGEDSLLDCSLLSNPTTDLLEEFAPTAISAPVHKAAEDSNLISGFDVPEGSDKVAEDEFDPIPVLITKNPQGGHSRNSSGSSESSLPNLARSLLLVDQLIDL
UniProt Q6UWZ7: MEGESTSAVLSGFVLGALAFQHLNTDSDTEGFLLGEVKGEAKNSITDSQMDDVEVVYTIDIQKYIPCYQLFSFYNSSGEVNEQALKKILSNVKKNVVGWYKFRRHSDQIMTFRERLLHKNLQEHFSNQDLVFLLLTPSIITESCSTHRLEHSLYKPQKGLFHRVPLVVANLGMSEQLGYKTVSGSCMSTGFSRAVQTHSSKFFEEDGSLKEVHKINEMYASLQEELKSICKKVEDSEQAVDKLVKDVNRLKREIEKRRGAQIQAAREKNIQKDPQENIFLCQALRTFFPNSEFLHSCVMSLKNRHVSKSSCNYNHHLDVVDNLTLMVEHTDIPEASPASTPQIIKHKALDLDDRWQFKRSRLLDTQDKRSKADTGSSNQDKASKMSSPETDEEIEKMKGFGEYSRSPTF
UniProt Q9ULC5: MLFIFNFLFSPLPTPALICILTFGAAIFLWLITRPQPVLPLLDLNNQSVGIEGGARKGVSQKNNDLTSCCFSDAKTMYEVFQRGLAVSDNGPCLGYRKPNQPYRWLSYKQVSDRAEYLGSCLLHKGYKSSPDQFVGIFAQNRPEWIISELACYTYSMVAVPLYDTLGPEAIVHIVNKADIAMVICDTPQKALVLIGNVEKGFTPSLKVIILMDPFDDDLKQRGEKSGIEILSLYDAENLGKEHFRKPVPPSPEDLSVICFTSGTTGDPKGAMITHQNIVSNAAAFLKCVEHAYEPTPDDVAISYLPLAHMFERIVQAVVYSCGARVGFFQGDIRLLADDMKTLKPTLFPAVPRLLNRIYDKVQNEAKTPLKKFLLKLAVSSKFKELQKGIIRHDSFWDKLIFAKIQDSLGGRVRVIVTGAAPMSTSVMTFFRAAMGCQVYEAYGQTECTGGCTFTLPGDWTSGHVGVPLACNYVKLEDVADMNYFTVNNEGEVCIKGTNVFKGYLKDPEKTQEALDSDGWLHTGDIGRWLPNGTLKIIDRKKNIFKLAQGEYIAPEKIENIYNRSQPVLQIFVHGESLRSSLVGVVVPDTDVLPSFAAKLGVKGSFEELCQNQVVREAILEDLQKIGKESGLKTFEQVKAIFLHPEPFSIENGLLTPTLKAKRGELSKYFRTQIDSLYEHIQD
UniProt P14621: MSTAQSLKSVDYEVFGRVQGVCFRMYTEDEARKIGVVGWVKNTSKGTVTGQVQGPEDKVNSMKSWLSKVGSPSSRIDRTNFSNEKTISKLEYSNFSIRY
UniProt Q9UKV3: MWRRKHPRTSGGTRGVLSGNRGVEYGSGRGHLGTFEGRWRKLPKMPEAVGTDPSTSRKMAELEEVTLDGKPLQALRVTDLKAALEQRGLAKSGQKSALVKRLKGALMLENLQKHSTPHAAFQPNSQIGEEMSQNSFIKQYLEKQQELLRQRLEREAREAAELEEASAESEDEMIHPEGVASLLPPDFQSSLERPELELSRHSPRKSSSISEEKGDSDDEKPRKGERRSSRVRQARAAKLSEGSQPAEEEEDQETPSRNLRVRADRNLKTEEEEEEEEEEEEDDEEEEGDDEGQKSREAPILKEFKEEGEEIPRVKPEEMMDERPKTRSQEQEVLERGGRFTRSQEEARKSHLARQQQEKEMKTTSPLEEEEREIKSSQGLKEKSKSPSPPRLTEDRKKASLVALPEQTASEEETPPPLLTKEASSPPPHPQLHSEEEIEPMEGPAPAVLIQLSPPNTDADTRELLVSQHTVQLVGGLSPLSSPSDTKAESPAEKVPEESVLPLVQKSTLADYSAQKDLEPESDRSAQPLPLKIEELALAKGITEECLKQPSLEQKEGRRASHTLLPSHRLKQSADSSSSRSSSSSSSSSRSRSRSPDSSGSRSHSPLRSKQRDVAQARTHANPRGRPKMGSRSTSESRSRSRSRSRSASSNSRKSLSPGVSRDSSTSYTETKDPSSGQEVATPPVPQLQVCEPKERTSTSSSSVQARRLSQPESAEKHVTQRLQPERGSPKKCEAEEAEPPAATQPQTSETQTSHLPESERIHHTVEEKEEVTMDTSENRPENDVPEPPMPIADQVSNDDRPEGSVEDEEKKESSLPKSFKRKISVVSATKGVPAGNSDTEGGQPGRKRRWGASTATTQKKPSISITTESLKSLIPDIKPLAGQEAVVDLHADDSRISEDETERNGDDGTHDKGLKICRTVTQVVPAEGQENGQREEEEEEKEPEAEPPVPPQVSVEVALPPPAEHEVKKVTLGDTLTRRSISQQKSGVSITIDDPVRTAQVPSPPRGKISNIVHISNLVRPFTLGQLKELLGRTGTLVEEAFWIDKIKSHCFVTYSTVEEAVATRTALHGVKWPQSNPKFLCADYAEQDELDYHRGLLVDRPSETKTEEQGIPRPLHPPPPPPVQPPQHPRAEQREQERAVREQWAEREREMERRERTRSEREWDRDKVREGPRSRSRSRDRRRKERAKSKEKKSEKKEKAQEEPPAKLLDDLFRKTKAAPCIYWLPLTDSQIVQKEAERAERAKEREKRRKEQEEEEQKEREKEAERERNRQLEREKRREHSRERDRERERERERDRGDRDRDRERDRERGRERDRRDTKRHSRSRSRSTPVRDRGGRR
UniProt Q15057: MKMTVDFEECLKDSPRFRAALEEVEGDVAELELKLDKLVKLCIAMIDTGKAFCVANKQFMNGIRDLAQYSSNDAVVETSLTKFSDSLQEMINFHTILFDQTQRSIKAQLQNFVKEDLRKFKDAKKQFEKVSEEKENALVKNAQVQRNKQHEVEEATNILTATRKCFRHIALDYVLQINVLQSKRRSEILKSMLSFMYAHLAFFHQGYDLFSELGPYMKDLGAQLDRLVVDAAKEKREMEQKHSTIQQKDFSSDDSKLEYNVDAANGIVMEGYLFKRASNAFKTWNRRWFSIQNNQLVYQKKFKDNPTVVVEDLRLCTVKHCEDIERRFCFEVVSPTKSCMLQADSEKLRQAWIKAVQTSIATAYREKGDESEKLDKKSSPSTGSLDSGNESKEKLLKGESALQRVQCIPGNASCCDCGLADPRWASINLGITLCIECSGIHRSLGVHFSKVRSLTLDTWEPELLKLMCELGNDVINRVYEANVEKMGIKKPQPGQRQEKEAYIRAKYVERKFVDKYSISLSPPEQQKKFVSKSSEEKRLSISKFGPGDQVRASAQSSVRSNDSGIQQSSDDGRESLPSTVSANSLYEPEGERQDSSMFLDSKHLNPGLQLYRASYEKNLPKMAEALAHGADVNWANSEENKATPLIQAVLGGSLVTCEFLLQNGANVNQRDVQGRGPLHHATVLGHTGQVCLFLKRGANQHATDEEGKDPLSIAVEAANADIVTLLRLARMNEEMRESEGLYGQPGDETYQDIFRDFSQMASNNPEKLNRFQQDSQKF

The list shows a part of the results.

Holding throughout (test): log2 fold change, soluble protein after heating vs DMSO (PISA); higher = thermal stabilisation; K562 cells, 10 uM, 30 min; active = over 0.2 and 3.5 SD of the protein, either way, in both replicates (recomputed)
Compound in assay [1]: CC[C@@H]1C(=O)N(C)c2cnc(Nc3ccc(C(=O)NC4CCN(C)CC4)cc3OC)nc2N1C1CCCC1
The method, boiled down:
(§1)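 Aliquots of K562 cells (2×10^6 cells/mL) treated with 10 μM compound for 30 min were heated for 3 min over 48°C-58°C. After pooling and extraction in PBS with 0.5% NP-40 at 4°C, soluble protein from a 21,000xg, 90 min spin was quantified by TMTpro 16plex LC-MS/MS with channel sums equalised. Thermal stability is expressed against control samples, from duplicates, as a log2 fold change.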

Compound in the next assay: CC[C@@H]1C(=O)N(C)c2cnc(Nc3ccc(C(=O)N[C@H]4CC[C@H](N5CCN(CC6CC6)CC5)CC4)cc3OC)nc2N1C(C)C [volasertib]
The method, boiled down: as §1

Compound in another assay: CC[C@H](C)[C@@H](C(=O)N[C@@H]([C@@H](C)O)C(=O)N[C@@H](CC(C)C)C(=O)[C@]1(CO1)C)NC(=O)[C@H]([C@@H](C)CC)N(C)C(=O)C [epoxomicin]
The method, boiled down: as §1

Compound in assay [2]: CCn1cc(-c2ccnc3[nH]c(-c4cccc(CN(C)C)c4)cc23)c(-c2ccc(NC(=O)N(C)C)cc2)n1
The method, boiled down:
as §1

Compound in assay [3]: CN(C)CC(=O)Nc1ccc2[nH]c(=O)c3ccccc3c2c1
The method, boiled down:
as §1

Compound in assay [4]: CN1C2=C(C3=C1C(=O)N(N=C3)CC4=CC(=CC=C4)N)SC(=C2)S(=O)C
The method, boiled down:
as §1

Compound in assay [5]: CN1CCC(CNc2ccc3ncc(-c4cccc(OC(F)(F)F)c4)n3n2)CC1
The method, boiled down:
as §1

Compound in assay [6]: CC[C@H](C)N1C=C(C2=C(C=C(C=C21)C3=CN=C(C=C3)N4CCNCC4)C(=O)NCC5=C(C=C(NC5=O)C)C)C
Summed up:
as §1

Compound in a further assay: CN(CCOC1=CC=C(C=C1)C[C@H]2C(=O)NC(=O)S2)C3=CC=CC=N3 (racemic) [rosiglitazone]
Summed up: as §1

Compound in assay [7]: CCn1c(C(=O)N(C2CC2)C2CC2)cc2c3c(ncn3C)c(Nc3cc(C)n(C)n3)nc21
Summed up: as §1

On to ACTG1 (UniProt K7EM38), for which the log2 fold change is inactive: 0.201 in assay [1]; inactive: -1.63 with volasertib; inactive: -0.443 with epoxomicin; inactive: -0.216 in assay [2]; inactive: -0.019 in assay [3]; inactive: 0.012 in assay [4]. Moreover, in assay [5], the log2 fold change was inactive: -0.302.

As to AARSD1 (UniProt Q9BTE6), the log2 fold change was inactive: -0.042 in assay [1], inactive: -0.227 with volasertib, inactive: -0.121 in assay [6] and inactive: 0.283 in assay [4].

Regarding ACAT1, A0A5F9ZHJ0, the log2 fold change in [1] is inactive: 0.091; with volasertib, inactive: 0.105; in assay [6], inactive: 0.018; with epoxomicin it was inactive: 0.121; in [2], inactive: 0.123; with rosiglitazone, inactive: -0.015. For the same target, the log2 fold change in [4] was inactive: -0.014; in assay [5], inactive: -0.067.

For ADAMTS13 (UniProt Q76LX8), the log2 fold change in assay [1] was inactive: -0.002; in the assay with volasertib it was inactive: 0.049; with epoxomicin, inactive: -0.327; in assay [4], inactive: 0.187.

On to AARS2 (UniProt Q5JTZ9), for which the log2 fold change in assay [1] is inactive: 0.001; with volasertib it was inactive: -0.199; in [6], inactive: 0.023; with epoxomicin it was inactive: 0.023; in assay [2] it was inactive: -0.05; in assay [3], inactive: 0.031. For the same target, the values for the log2 fold change in assay [4] and in assay [5] were inactive: -0.062 and active: -0.312, respectively.

ABCB6 (UniProt Q9NP58): the log2 fold change in [1] is inactive: -0.131; with volasertib, inactive: -0.051; in [6] it was inactive: 0.001; in the assay with epoxomicin, inactive: -0.009; in assay [2], inactive: -0.019; in [3], inactive: 0.061. In addition, the figures for the log2 fold change in assay [4] and in assay [5] were inactive: -0.053 and inactive: -0.123, respectively.

As for ABHD6 (UniProt Q9BV23), the log2 fold change in assay [1] is inactive: 0.103; in the assay with volasertib, inactive: 0.723; in assay [6] it was inactive: -0.079; in assay [2] it was inactive: 0.111; in assay [5], inactive: 0.096.

With AAK1 (UniProt Q2M2I8), the log2 fold change in [1] is inactive: 0.078; with volasertib, inactive: 0.121; in assay [6], inactive: -0.013; with epoxomicin, inactive: 0.031; in [2], inactive: -0.141; in [3], inactive: 0.087. The log2 fold change in [4] is inactive: -0.108; in [5], inactive: 0.27.

For A2ML1 (UniProt A8K2U0), the log2 fold change in assay [1] is inactive: 0.034; with volasertib, inactive: -0.111; in [6], inactive: 0.215; in assay [7], inactive: -0.042; in [3] it was inactive: -0.043.

Regarding ACTN4 (UniProt K7EJH8), the log2 fold change in [1] was inactive: 0.026; with volasertib, inactive: -0.018; in the assay with epoxomicin, inactive: -0.029; in assay [7], inactive: 0.014; in [2], inactive: 0.049; in the assay with rosiglitazone, inactive: -0.035. Also, the log2 fold change in assay [4] was inactive: -0.019; in assay [5] it was inactive: 0.071.

For the target ACAA2 (UniProt K7ER88), the log2 fold change in assay [1] was inactive: 0.254; in the assay with volasertib, inactive: 0; in [6], inactive: -0.134; in the assay with epoxomicin, inactive: -0.221; in [3], inactive: -0.166; with rosiglitazone it was inactive: 0.164.

With ACBD6 (UniProt Q9BR61), the log2 fold change in assay [1] was inactive: -0.032; with volasertib, active: -0.473; in [6] it was inactive: 0.103; in the assay with epoxomicin, inactive: 0.05; in assay [2], inactive: -0.11; in assay [3], inactive: 0.141. Also, the log2 fold change in [4] was inactive: -0.099; in [5], inactive: 0.046.

As for AARSD1 isoform 3 (UniProt Q9BTE6), the log2 fold change was inactive: -0.081 in assay [1]; active: -0.27 with volasertib; inactive: 0.019 in assay [6]; inactive: 0.083 with epoxomicin; inactive: -0.01 in [2]; inactive: 0.037 in assay [3]. Further, the log2 fold change was inactive: 0.02 in assay [4] and inactive: 0.021 in assay [5].

Take ABRAXAS1 (UniProt Q6UWZ7): the log2 fold change in [1] is inactive: 0.117; in the assay with volasertib, inactive: 0.07; with epoxomicin it was inactive: 0.012; in assay [7] it was inactive: 0.052; in [2], inactive: 0.207; in [3] it was inactive: -0.072. Besides, the log2 fold change is inactive: 0.118 with rosiglitazone, inactive: 0.164 in assay [4] and inactive: 0.198 in [5].

Take ABITRAM (UniProt Q9NX38): the log2 fold change is inactive: 0.033 in assay [1]; inactive: -0.11 in the assay with volasertib; inactive: 0.088 in assay [6]; inactive: 0.055 in the assay with epoxomicin; inactive: 0.137 in assay [2]; inactive: 0.051 in assay [3]. Besides, the log2 fold change in assay [4] was inactive: -0.034; in [5] it was inactive: -0.093.

Consider AAGAB (UniProt Q6PD74), for which the log2 fold change in assay [1] is inactive: -0.106; in the assay with volasertib, active: -0.551; in [6], inactive: 0.058; in the assay with epoxomicin, inactive: 0.006; in assay [2] it was inactive: -0.018; in assay [3], inactive: 0.021. The log2 fold change in [4] was inactive: 0.125; in [5] it was inactive: -0.228.

ACSL5 isoform 3 (UniProt Q9ULC5): the log2 fold change was inactive: -0.013 in [1]; inactive: -0.088 with volasertib; inactive: 0.029 in assay [6]; inactive: 0.005 in the assay with epoxomicin; inactive: -0.068 in [2]; inactive: -0.084 in assay [3]. The log2 fold change was inactive: -0.216 in assay [4] and active: -0.361 in [5].

ACYP2 (UniProt P14621): the log2 fold change in assay [1] is inactive: -0.115; in the assay with volasertib, inactive: 0.153; in assay [6], inactive: -0.027; in assay [7], inactive: 0.135; in assay [3], inactive: -0.075.

In the case of ACIN1 (UniProt Q9UKV3), the log2 fold change was inactive: -0.017 in assay [1]; inactive: -0.056 with volasertib; inactive: -0.012 in assay [6]; inactive: -0.048 with epoxomicin; inactive: 0.004 in [2]; inactive: -0.034 in assay [3]. Further, the log2 fold change in assay [4] is inactive: -0.021; in [5], inactive: -0.097.

Turning to ACAP2 (UniProt Q15057), the log2 fold change was inactive: -0.034 in [1]; inactive: -0.192 with volasertib; inactive: 0.066 in assay [6]; inactive: -0.002 in the assay with epoxomicin; inactive: -0.015 in assay [2]; inactive: 0.065 in assay [3]. The log2 fold change was inactive: -0.004 in assay [4] and inactive: 0.063 in [5].

Regarding ACADM isoform 2 (UniProt P11310), the log2 fold change in assay [1] was inactive: -0.045; with volasertib, inactive: -0.03; in assay [6] it was inactive: -0.015; in the assay with epoxomicin it was inactive: 0.015; in assay [2], inactive: -0.042; in [3], inactive: -0.024. Also, the values for the log2 fold change in assay [4] and in [5] were inactive: -0.078 and inactive: -0.011, respectively.
